These are yes or no findings as the source states them, for the method shown. Binding seen in cells or lysates may run through a third protein. Some entries that bind do so weakly or less than the wild type. For some assays here: Tags and fused reporters may be left off the sequences shown.
T1: Flag-tagged FOXA2 (human) (UniProt Q9Y261)
T1 sequence: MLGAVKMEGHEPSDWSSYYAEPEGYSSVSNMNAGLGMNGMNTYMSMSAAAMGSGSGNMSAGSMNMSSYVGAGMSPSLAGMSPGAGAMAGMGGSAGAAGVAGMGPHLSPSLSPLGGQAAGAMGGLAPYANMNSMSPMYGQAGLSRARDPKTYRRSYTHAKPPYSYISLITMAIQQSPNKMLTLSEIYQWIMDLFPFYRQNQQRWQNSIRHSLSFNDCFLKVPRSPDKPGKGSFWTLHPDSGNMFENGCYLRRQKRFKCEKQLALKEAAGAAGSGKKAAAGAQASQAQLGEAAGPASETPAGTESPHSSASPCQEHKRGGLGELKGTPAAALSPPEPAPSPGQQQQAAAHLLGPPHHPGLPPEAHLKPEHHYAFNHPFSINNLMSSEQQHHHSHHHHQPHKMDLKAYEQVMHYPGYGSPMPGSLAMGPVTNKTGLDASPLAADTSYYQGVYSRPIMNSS

T2: FOXA2 in colon cancer cells (HCT-116 and SW480) (human) (UniProt Q9Y261)
T2 sequence: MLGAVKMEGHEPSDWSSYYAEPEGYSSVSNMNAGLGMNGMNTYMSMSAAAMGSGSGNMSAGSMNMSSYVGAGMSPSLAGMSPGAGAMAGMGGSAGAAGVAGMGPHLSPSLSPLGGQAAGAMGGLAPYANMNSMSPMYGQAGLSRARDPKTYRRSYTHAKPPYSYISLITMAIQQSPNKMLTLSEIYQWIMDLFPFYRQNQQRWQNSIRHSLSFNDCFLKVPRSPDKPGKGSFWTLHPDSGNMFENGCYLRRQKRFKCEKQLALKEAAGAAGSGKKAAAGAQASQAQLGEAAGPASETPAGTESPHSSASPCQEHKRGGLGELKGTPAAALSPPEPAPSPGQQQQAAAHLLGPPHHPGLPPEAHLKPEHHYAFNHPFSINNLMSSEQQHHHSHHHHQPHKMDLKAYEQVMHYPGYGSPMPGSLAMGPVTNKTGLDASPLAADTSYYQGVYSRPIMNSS


How the values were obtained:
[1] = target: T1, Flag-tagged FOXA2 (human); experiment: co-IP; HEK293T cells transfected with Flag-tagged FOXA2 and HA-tagged TRIM36; lysates in IP buffer, antibodies and Protein G agarose beads, 4 °C overnight; blots with anti-Flag and anti-HA
[2] = target: T2, FOXA2 in colon cancer cells (HCT-116 and SW480) (human); experiment: co-IP; colon cancer cells (HCT-116 and SW480), Figure S9A,B; lysates in IP buffer, antibodies and Protein G agarose beads, 4 °C overnight

| Binder | binding [1] | binding [2] |
| --- | --- | --- |
| HA-tagged TRIM36 (protein, UniProt Q9NQ86 1-728) MSESGEMSEFGYIMELIAKGKVTIKNIERELICPACKELFTHPLILPCQHSICHKCVKELLLTLDDSFNDVGSDNSNQSSPRLRLPSPSMDKIDRINRPGWKRNSLTPRTTVFPCPGCEHDVDLGERGINGLFRNFTLETIVERYRQAARAATAIMCDLCKPPPQESTKSCMDCSASYCNECFKIHHPWGTIKAQHEYVGPTTNFRPKILMCPEHETERINMYCELCRRPVCHLCKLGGNHANHRVTTMSSAYKTLKEKLSKDIDYLIGKESQVKSQISELNLLMKETECNGERAKEEAITHFEKLFEVLEERKSSVLKAIDSSKKLRLDKFQTQMEEYQGLLENNGLVGYAQEVLKETDQSCFVQTAKQLHLRIQKATESLKSFRPAAQTSFEDYVVNTSKQTELLGELSFFSSGIDVPEINEEQSKVYNNALINWHHPEKDKADSYVLEYRKINRDDEMSWNEIEVCGTSKIIQDLENSSTYAFRVRAYKGSICSPCSRELILHTPPAPVFSFLFDEKCGYNNEHLLLNLKRDRVESRAGFNLLLAAERIQVGYYTSLDYIIGDTGITKGKHFWAFRVEPYSYLVKVGVASSDKLQEWLRSPRDAVSPRYEQDSGHDSGSEDACFDSSQPFTLVTIGMQKFFIPKSPTSSNEPENRVLPMPTSIGIFLDCDKGKVDFYDMDQMKCLYERQVDCSHTLYPAFALMGSGGIQLEEPITAKYLEYQEDM | binds | – |
| TRIM36 in colon cancer cells (HCT-116 and SW480) (protein, UniProt Q9NQ86 1-728) MSESGEMSEFGYIMELIAKGKVTIKNIERELICPACKELFTHPLILPCQHSICHKCVKELLLTLDDSFNDVGSDNSNQSSPRLRLPSPSMDKIDRINRPGWKRNSLTPRTTVFPCPGCEHDVDLGERGINGLFRNFTLETIVERYRQAARAATAIMCDLCKPPPQESTKSCMDCSASYCNECFKIHHPWGTIKAQHEYVGPTTNFRPKILMCPEHETERINMYCELCRRPVCHLCKLGGNHANHRVTTMSSAYKTLKEKLSKDIDYLIGKESQVKSQISELNLLMKETECNGERAKEEAITHFEKLFEVLEERKSSVLKAIDSSKKLRLDKFQTQMEEYQGLLENNGLVGYAQEVLKETDQSCFVQTAKQLHLRIQKATESLKSFRPAAQTSFEDYVVNTSKQTELLGELSFFSSGIDVPEINEEQSKVYNNALINWHHPEKDKADSYVLEYRKINRDDEMSWNEIEVCGTSKIIQDLENSSTYAFRVRAYKGSICSPCSRELILHTPPAPVFSFLFDEKCGYNNEHLLLNLKRDRVESRAGFNLLLAAERIQVGYYTSLDYIIGDTGITKGKHFWAFRVEPYSYLVKVGVASSDKLQEWLRSPRDAVSPRYEQDSGHDSGSEDACFDSSQPFTLVTIGMQKFFIPKSPTSSNEPENRVLPMPTSIGIFLDCDKGKVDFYDMDQMKCLYERQVDCSHTLYPAFALMGSGGIQLEEPITAKYLEYQEDM | – | binds |

From article PMC10724393, “FOXA2 Suppression by TRIM36 Exerts Anti‐Tumor Role in Colorectal Cancer Via Inducing NRF2/GPX4‐Regulated Ferroptosis” (Advanced Science, 2023)
